# From paper PMC12040169 (PLOS Biology, 2025)
# This is one part of the list.
# System: T1, CTL2-GFP (C. trachomatis L2/434/Bu, GFP-expressing)
# T1 construct: L2/434/Bu, GFP-expressing
# Design: species or system HeLa; Intracellular C. trachomatis growth in HeLa cells, bulk GFP fluorescence relative to DMSO
# Conditions: bulk GFP, single well; 28.5 h, 10 µM; inhibitor
row,Compound,% of control remaining [%]
1,c1ccc(-c2c(-c3ccccc3)n(Cc3ccco3)c3ncn4nc(-c5cccnc5)nc4c23)cc1 [CBK265374],112.917
2,COc1ccc(CCNC(=O)c2cnc(-c3ccc(Cl)cc3)c(-c3cccc(CNC(C)=O)c3)c2)cc1OC [CBK164413],110.105
3,O=C(O)C1CCCN1S(=O)(=O)c1ccc(Cl)cc1 (stereo not shown) [CBK261249],100
4,Cc1c(C(=O)O)ccc2c1N[C@@H](c1ccc(OCC#N)cc1)C1CC=CC21 (stereo partly shown) [CBK287124],132.973
5,CCOc1ccc2nc(NC(=N)N)nc(C)c2c1 [CBK010384C],19.5285
6,Cc1nc(C)c(CC(=O)N(C)CC2OCCc3ccccc32)s1 (stereo not shown) [CBK281478],115.79
7,O=C(CSc1nnnn1CC1CCCO1)N1CC=C(c2ccccc2)CC1 (stereo not shown) [CBK295160],146.157
8,O=C(O)C1(Cc2ccc(-c3ccccc3)cc2)CCNC1 (stereo not shown) [CBK281687],118.434
9,CCC(NC(=O)CCN1Cc2ccccc2C1=O)c1ccc(F)cc1 (stereo not shown) [CBK282657],90.3959
10,O=C(CC1SC(N2CCOCC2)=NC1=O)Nc1cccc(C(=O)O)c1 (stereo not shown) [CBK300498],120.309
11,Cc1ccc(NC(=O)CC(C(=O)O)N(C)C)cc1 (stereo not shown) [CBK267068],166.341
12,COc1cc2c(cc1CN1CCOCC1CC(=O)O)CCC2 (stereo not shown) [CBK307277],110.502
13,CC(=O)Nc1nc(C)c(S(=O)(=O)Nc2nc(C(C)C)ns2)s1 [CBK051227],108.801
14,COc1cc(C2C3=C(COC3=O)Nc3[nH]nc(C)c32)ccc1O (stereo not shown) [CBK288146],104.109
15,O=C(O)c1cc(S(=O)(=O)NCc2ccco2)ccc1Cl [CBK058905],150.343
16,CC(=O)Nc1ccc(NC(=O)CC2SCCNC2=O)cc1 (stereo not shown) [CBK269921],117.761
17,O=C(NCCN1CCC(O)(c2cccc(F)c2)CC1)c1cccs1 [CBK282450],78.2829
18,O=S(=O)(NCCSc1nnnn1-c1ccccc1)c1cccs1 [CBK268013],87.3566
19,CCN(CC(=O)N1CCN(c2cc(Cl)ccc2C)CC1)S(=O)(=O)c1ccc2ccccc2c1 [CBK268827],135.396
20,C[C@@H]1CN(C(=O)OCc2ncc(F)cc2F)C[C@H](C)O1 [CBK200286],60.1402
21,COc1cc(C)c(S(=O)(=O)Nc2ccc(CC(=O)O)cc2)cc1C [CBK299782],136.326
22,COCCCn1c(=O)[nH]c2ncc(-c3cc(C(C)C)ccc3OC)nc21 [CBK064351],159.308
23,Cc1cccc(OCC(=O)Nc2ncn(Cc3cccnc3)n2)c1 [CBK304919],83.2914
24,Cc1noc(C)c1S(=O)(=O)Nc1ccc2cc(Br)cnc2n1 [CBK073893],102.271
25,Cc1ccc(C(=O)NNC(=O)c2ccc([N+](=O)[O-])cc2)cc1 [CBK261793],99.5641
26,Cc1ccc(C(=O)N2CCn3c2nc2ccccc23)cc1 [CBK288204],133.268
27,COc1ccc(C2=NNC(c3ccc(C(=O)O)cc3)C2)cc1 (stereo not shown) [CBK287167],144.764

# Of the compounds above, 2 contain an aryl thioether with sulfur outside any ring.
row,Compound,% of control remaining [%]
7,O=C(CSc1nnnn1CC1CCCO1)N1CC=C(c2ccccc2)CC1 (stereo not shown) [CBK295160],146.157
18,O=S(=O)(NCCSc1nnnn1-c1ccccc1)c1cccs1 [CBK268013],87.3566

# The list goes on:

row,Compound,% of control remaining [%]
1,O=c1n(CC2CCCCC2)c2ccccc2n1S(=O)(=O)CCc1cccc2ccccc12 [CBK106525],111.395
2,Nc1ncc(CCCN2CCOCC2)c(N)n1 [CBK025981],117.819
3,CC(C)c1ccc(/C=C/C(=O)N2CCN(C3CCN(C)CC3)CC2)cc1 [CBK149094],96.9297
4,COC(=O)c1c(NC(=S)NCCn2cc(Br)cn2)sc2c1CCC(C)C2 (stereo not shown) [CBK266886],154.105
5,COc1ccc(NC(=O)C2CCCN2c2nc(O)cc(C(F)(F)F)n2)cc1 (stereo not shown) [CBK003704],100
6,CN(C)CCNC(=O)c1cccc(-c2cnc3[nH]c(=O)n(Cc4ccc(S(C)(=O)=O)cc4)c3n2)c1 [CBK065069],147.45
7,N#CC1=C(N)N2C(=C(C#N)C13CCN(Cc1ccccc1)CC3)Nc1ccccc12 [CBK267241],94.9467
8,CC(C)NC(=O)C1(Cc2ccc(-c3ccccc3)cc2)CCN(C(=O)C2CCC2)CC1 [CBK285750],103.325
9,CSCCN1CCN(c2nccnc2Oc2ccc(F)cc2)CC1 [CBK083028T],99.2267
10,COc1cc2c(cc1NC(=O)C(C)Oc1ccccc1)oc1ccccc12 (stereo not shown) [CBK264061],93.2162
11,c1ccc(NCCOc2cncc(N3CCCC3)n2)cc1 [CBK115670],110.521
12,CCOC(=O)c1cnc2c(Cl)cc(Cl)cc2c1NCCN1CCOCC1 [CBK307278],157.601
13,CCN(CC)c1c(C)nc2ccc(C(=O)N3CCN(C)CC3)cn12 [CBK145955],100
14,c1cn2c(-c3ccoc3)cnc(N3CCOCC3)c2n1 [CBK091292],143.82
15,CC(C)C(=O)Nc1cc2ccccc2c(-c2cc(F)cc(F)c2)n1 [CBK085775],111.666
16,COCCn1c(SCc2cc(=O)oc3cc(C)ccc23)nnc1-c1ccc(Cl)cc1 [CBK297517],137.306
17,OCCN(Cc1cccnc1)Cc1cccn1-c1ccc(F)cc1 [CBK283023],92.9022
18,O=C(NCC1c2ccccc2CCN1C(=O)CN1C(=O)c2ccccc2C1=O)C1CCCCC1 (stereo not shown) [CBK262582],111.193
19,CCn1nc(C)c(-c2cncn2CC(C)n2nc(C)cc2C)c1C (stereo not shown) [CBK281777],136.584
20,Nc1ncc(-c2ccco2)nc1NCc1ccco1 [CBK063682],161.644
21,O/N=C1/c2ccccc2/C(=N/O)C1c1ccccc1 [CBK261122],100.423
22,O=S(=O)(Nc1ccc(C(O)(C(F)(F)F)C(F)(F)F)cc1)c1cccc2nsnc12 [CBK062096],145.44
23,O=C(NNC(=S)NCCc1ccccc1)c1ccc(Br)o1 [CBK266818],122.175
24,Cc1cc2ccccc2n1CCCNS(=O)(=O)c1ccc2[nH]c(=O)[nH]c(=O)c2c1 [CBK286362],109.733
25,Cc1csc(SC(C)C(=O)N2CCc3ccccc32)n1 (stereo not shown) [CBK305909],49.4866
26,O=C(O)CCC(=O)N1CCC(c2nnc3ccccn23)CC1 [CBK287920],135.272
27,CC(C)(C)OC(=O)NC1CCc2ccccc2N(Cc2ccccc2)C1=O (stereo not shown) [CBK013366],101.482

# Three compounds out of the list, sorted by count of non-hydrogen atoms, ascending.
row,Compound,% of control remaining [%]
25,Cc1csc(SC(C)C(=O)N2CCc3ccccc32)n1 (stereo not shown) [CBK305909],49.4866
15,CC(C)C(=O)Nc1cc2ccccc2c(-c2cc(F)cc(F)c2)n1 [CBK085775],111.666
5,COc1ccc(NC(=O)C2CCCN2c2nc(O)cc(C(F)(F)F)n2)cc1 (stereo not shown) [CBK003704],100

# Next records

row,Compound,% of control remaining [%]
1,O=C(CN1C(=O)N2CCCN=C2c2ccccc21)N1CCCCCC1 [CBK284399],119.372
2,CC(=O)N(Cc1cccnc1)c1nc2cc3c(cc2s1)OCCO3 [CBK287696],138.182
3,c1ccc(Cn2c3ccccc3c3nnc(SCc4ccc5nonc5c4)nc32)cc1 [CBK267517],144.082
4,COC(=O)c1sccc1NC(=O)c1ccc(F)cc1Cl [CBK270325],148.897
5,CN(C(=O)CSc1nnn(C)n1)c1ccccc1 [CBK058129],116.079
6,COc1ccc(Cl)cc1N1CCN(Cc2ncc[nH]2)CC1 [CBK126418],111.339
7,O=C(CN1CCN(c2ccccc2)CC1)Nc1ccc(Cl)cc1C(=O)c1ccccc1 [CBK265827],162.111
8,Fc1ccccc1COc1cccc(CNCc2ccccn2)c1 [CBK268552C],98.1287
9,O=[N+]([O-])c1ccc(/C=N/c2ccc(Cc3ccc(/N=C/c4ccc([N+](=O)[O-])s4)cc3)cc2)s1 [CBK261228],115.549
10,CNC(=O)c1ccc(-c2cnc(NCC3CCN(C(=O)OC(C)(C)C)CC3)cn2)cc1 [CBK173726],121.698
11,CCOC(=O)c1sc(NS(=O)(=O)c2cccc3cccnc23)nc1C [CBK047443],104.327
12,CCCNc1nc(-c2cccc(O)c2)cn2ccnc12 [CBK066395],102.841
13,COc1ccc(-c2nc(NC(=O)CSc3n[nH]c(N)n3)ns2)cc1 [CBK267236],174.938
14,COc1ccc(-c2ccc(OC)cc2C(=O)Nc2ccc3c(c2)N(C)C(=O)CO3)cc1 [CBK285650],92.3437
15,COC(=O)c1cn([C@H]2CO[C@H]3[C@@H]2OC[C@@H]3NS(=O)(=O)Cc2ccccc2)nn1 [CBK289498],135.357
16,O=C(O)C(CC1COc2ccccc2O1)C(=O)O (stereo not shown) [CBK276280],145.52
17,O=C(NCCc1c[nH]cn1)NC12CC3CC(CC(C3)C1)C2 [CBK269880],114.987
18,CCOC(=O)C1CCCCN1Cc1ccc(OC)c(O)c1 (stereo not shown) [CBK261560],110.023
19,CC(=O)[C@H]1C[C@@H](CC(=O)N2CCN(c3ccc(C(F)(F)F)cc3)CC2)C1(C)C [CBK091330],102.108
20,O=C(C[C@@H]1CCNC[C@@H]1Cc1cc(-c2ccccc2)on1)NC1CC1 [CBK289146],111.825
21,Cc1ncc(S(=O)(=O)N2CCC(OCc3ccncc3)C2)s1 (stereo not shown) [CBK305483],90.3468
22,Clc1ccc(SCCCSc2ncccn2)cc1 [CBK266400],169.89
23,Cc1nc2cc(C(=O)N3CCCCC3CN3CCOCC3)ccc2[nH]1 (stereo not shown) [CBK304219],106.04
24,Clc1ccc(C2N(Cc3ccccc3)CCC3CCCCN32)cc1Cl (stereo not shown) [CBK028769],100
25,Cc1ccc(S(=O)(=O)Nc2sccc2C(=O)O)cc1 [CBK042244],190.301
